Assay results published in PubChem BioAssay AID588499 (NMMLSC, 2011).
Among all 360,000 compounds or so, about 610 (0.17%) were called active. Inconclusive results, whose numbers are uncertain, are shown with a selection of clear calls. Cut-off read from the data, not from the text of the source: active = inhibition above about 30%; inconclusive = no clear call, values can overlap the other calls; inactive = below that.

Each compound was assayed on Botulinum neurotoxin type A light chain protease (Clostridium botulinum A str. ATCC 3502) (assay: blockers of BoNT/A LC substrate cleavage – biochemical, flow cytometry, MLPCN library, primary screen (AID 588499; note: plate controls were buffer without enzyme for full effect and enzyme alone for no effect)). Conditions: multiplex microsphere protease substrate cleavage, at 10 µM, hits give high values.
Cc1cnc(=O)[nH]c1SCc1ccccc1F was tested, and the inhibition was inactive: -1.7%.
With CCn1ncc(C2=NOC(C(=O)NCc3ccccc3)C2)c1C (centres undefined) the inhibition was inconclusive: -10%.
In the case of CCC(C)[C@H](N)c1nnc(SCC(=O)Nc2cccc(Cl)c2)o1 (some centres undefined), the inhibition is reported as inconclusive: 4.6%.
COc1ccccc1-n1c([S-])c(C(=O)Nc2ccccc2C(F)(F)F)[n+]2ccc(C(=O)NCCO)cc12 was tested, and the inhibition was active: 36.5%.
In the case of O=C(c1sc2ccccc2c1Cl)N1CCC2(CC1)OCCO2, the inhibition is reported as inconclusive: -5.4%.
For CCN(CC)CCOC(=O)c1ccc(NC(=O)COc2cc(=O)n(CC)c3ccccc23)cc1, the inhibition was inconclusive: -321%.
With CCOC(=O)c1cc2c(=O)n3ccccc3nc2n(C(C)C)c1=NC(=O)c1c(-c2ccccc2Cl)noc1C the inhibition was active: 38.6%.
CC(=O)N(C(C)=O)c1nc(-c2ccccc2)cn1/N=C/c1cccc([N+](=O)[O-])c1 was tested, and the inhibition was inconclusive: -0.5%.
In the case of O=C(CCOc1cccc(Br)c1)Nc1ccc(F)c(S(=O)(=O)N2CCOCC2)c1, the inhibition is reported as inconclusive: -4.6%.
With CC(C)CCC(CCN1CCOCC1)c1ccc2c(c1)OCO2 (centres undefined) the inhibition was inactive: -1.4%.
In the case of CC(=O)/C(=N/Nc1ccc(Br)cc1)N1CCCc2ccccc21, the inhibition is reported as inconclusive: 3.7%.
For COc1ccccc1-c1nnc(SC2CCc3ccccc3NC2=O)s1 (centres undefined), the inhibition was inconclusive: -0.6%.
COC(=O)c1cccnc1N1CCN(c2ccccc2F)CC1 was tested, and the inhibition was inconclusive: -1.8%.
With CC(CC(=O)NCCc1ccc(F)cc1)c1ccccc1 (centres undefined) the inhibition was inconclusive: -0.1%.
With CC(C)(C)n1nc2c(c1NC(=O)CCCc1ccccc1)CS(=O)C2 (centres undefined) the inhibition was inactive: -0.9%.
With COc1ccc2c(c1)CCC1C2=NN(/C(C)=C\C(C)=O)C1c1ccc(F)cc1 (centres undefined) the inhibition was inconclusive: 6%.
With Brc1cc(Cc2nnc(-c3ccccc3)o2)c(Br)s1 the inhibition was inconclusive: -2%.
CCc1ccccc1NC(=O)C1CCCN(c2ncccn2)C1 (centres undefined) was tested, and the inhibition was inactive: 0.2%.
Cc1ccccc1OCCCN1CCCC1 was tested, and the inhibition was inconclusive: 9.2%.
In the case of COc1ccc(-n2c(O)c(C(C)=NCc3ccco3)c(=O)[nH]c2=O)cc1, the inhibition is reported as inconclusive: -2%.
In the case of O=C(N/N=C\c1ccc[nH]1)C1COc2ccccc2O1 (centres undefined), the inhibition is reported as inconclusive: -4.3%.
Fc1ccc(-c2[nH]ncc2CN(CC2CCC2)CC2CCCO2)c(F)c1 (centres undefined) was tested, and the inhibition was inactive: 0.7%.
For CSc1nc(N)n2nc(C)cc2n1, the inhibition was inactive: -1.7%.
O=C(NCCN1CCOCC1)Nc1ccc(Cl)cc1Cl was tested, and the inhibition was inconclusive: -0.2%.
In the case of CC(C)CNS(=O)(=O)c1ccc(OCC(=O)Nc2ccc3c(c2)OCO3)c(Cl)c1, the inhibition is reported as inconclusive: 20.3%.
For O=C(CSc1n[nH]c(-c2cccs2)n1)N1CCCC1, the inhibition was inconclusive: 1.2%.
For O=C(O)CC1(CC(=O)NCc2ccccn2)CCCCC1, the inhibition was inconclusive: 2.8%.
In the case of CCCN1CCN(CCCNC(=O)C2CCCN(c3nc4ccc(OCC)cc4s3)C2)CC1 (centres undefined), the inhibition is reported as inconclusive: -1%.
COc1cccc(Nc2nc3ccccc3nc2NS(=O)(=O)c2cccs2)c1 was tested, and the inhibition was inconclusive: -1.2%.
In the case of Cn1nc(C(F)(F)F)c(C(=O)Nc2ccc(Cl)cc2)c1Cl, the inhibition is reported as inconclusive: 0.5%.
O=C(Nc1nc(COc2ccccc2)cs1)c1ccccc1F was tested, and the inhibition was inactive: -0.2%.
With Fc1ccccc1CN1CCCC(NC2CCC2)C1 (centres undefined) the inhibition was inconclusive: -0.2%.
For CCOC(=O)C(C)Sc1cc(CS(=O)(=O)c2ccccc2)nc(-c2ccccc2)n1 (centres undefined), the inhibition was inconclusive: 2.5%.
CCc1ccc(NC(=O)C(CC)Sc2nc3cc4c(cc3c(=O)n2Cc2ccco2)OCO4)cc1 (centres undefined) was tested, and the inhibition was inconclusive: -1%.
CCN(Cc1ccccc1)C(c1cc2ccc(C)cc2[nH]c1=O)c1nnnn1CCOC (centres undefined) was tested, and the inhibition was inconclusive: -284%.
For Cc1cc(C)cc(N(CC(=O)NC(C)(C)C)C(=O)CNC(=O)c2cccs2)c1, the inhibition was inactive: 0.7%.
In the case of Cc1ccc2[nH]cc(C(=O)CN3CCOCC3)c2c1, the inhibition is reported as inconclusive: 4.1%.
Cc1cccc(OCc2nnc(N)s2)c1 was tested, and the inhibition was inconclusive: -2.4%.
With Cc1ccc(C2C3CN(C(C)C)CC=C3C(C#N)=C(N)C2(C#N)C#N)cc1 (centres undefined) the inhibition was inactive: 3%.
Cc1cccc(OCCC(=O)Nc2ccc(Cl)cc2F)c1 was tested, and the inhibition was inconclusive: -0.9%.
With CC(=O)Nc1ccc(-c2ccnc3c2CC(C)(C(=O)Nc2ccc4c(c2)OCO4)O3)cc1 (centres undefined) the inhibition was inactive: -0.5%.
In the case of NCc1ccccc1, the inhibition is reported as inactive: -0.6%.
CC(=O)c1ccc(NC(=O)C2(c3ccccc3)CC2(Cl)Cl)cc1 (centres undefined) was tested, and the inhibition was inconclusive: -5.2%.
O=C1NC(=O)c2cc(NC(=O)C3CCCO3)ccc21 (centres undefined) was tested, and the inhibition was inconclusive: 0%.
With Cc1ccccc1-c1nc(CS(=O)CC(=O)NCCN2CCN(Cc3ccccc3)CC2)c(C)o1 (centres undefined) the inhibition was inconclusive: 0%.
In the case of COc1cc2nc(/C=C/c3ccc(N(C)C)cc3)sc2cc1SC, the inhibition is reported as active: 39.4%.
In the case of Nc1cc(=O)[nH]c(SCC(=O)Nc2ccc3c(c2)CCC3)n1, the inhibition is reported as inactive: -0.8%.
With CC(C)(C)c1ccc(-n2ncc3c2CCCC3NC(=O)c2ccco2)cc1 (centres undefined) the inhibition was inactive: 0.1%.
For CCCCN(C(=O)c1cccc(-n2cccc2)c1)c1c(N)n(Cc2ccccc2)c(=O)[nH]c1=O, the inhibition was inconclusive: -6.1%.
O=c1[nH]c2ccc(Cl)cc2c(-c2ccccc2)c1N1CCN(CCO)CC1 was tested, and the inhibition was inconclusive: 1.7%.
In the case of COc1cc2cc(C(c3nnnn3Cc3ccc(F)cc3)N3CCCCCC3)c(=O)[nH]c2cc1OC (centres undefined), the inhibition is reported as inconclusive: -0.6%.
COC(=O)c1ccc(NC(=O)CSc2nnc(-c3ccncc3)n2N)cc1 was tested, and the inhibition was inconclusive: 3.8%.
With COc1cccc(/C=N/NC(=O)C(=O)NCc2ccco2)c1O the inhibition was inconclusive: -4.4%.
In the case of Cc1nnc(NC(=O)C2CCCCC2)s1, the inhibition is reported as inconclusive: -1.9%.
CCN(CC(=O)Nc1ccc(NC(C)=O)cc1)C(=O)c1cc(C)on1 was tested, and the inhibition was inconclusive: 0.4%.
With COCCCNC(=O)CSc1nc2ccc(N3CCOCC3)cc2c(=O)n1CCc1ccccc1 the inhibition was inconclusive: -2.1%.
In the case of COc1ccccc1OCc1nnc(SCC(=O)N2CCCCC2)o1, the inhibition is reported as inactive: -1.1%.
In the case of CC(=O)Nc1cc(-c2cccc(F)c2)cn2c(-c3ccccc3)cnc12, the inhibition is reported as inactive: 0.2%.
In the case of CN(C)c1nc(N)c([N+](=O)[O-])c(NCc2ccccc2)n1, the inhibition is reported as inactive: -1%.
